These are literature values, as cited in US20220288000A1, “CHEWABLE FORMULATIONS” (HOFFMAN TECHNOLOGIES LLC, priority 2021, published 2022).

Residues, ends and D or L forms follow the SMILES beside them.

The conditions of this data set: relative to sucrose.

As to `COC(=O)[C@H](Cc1ccccc1)NC(=O)[C@@H](N)CC(=O)O` [Aspartame, Methyl L-α-aspartyl-L- phenylalaninate] (H-Asp-Phe-OMe), the “sweetness, times as sweet as sucrose” value is reported as 180 to 200 times.
With `O=C[C@H](O)[C@@H](O)[C@H](O[C@@H]1O[C@H](CO)[C@H](O)[C@H](O)[C@H]1O)[C@H](O)CO` [Lactose, 4-O-β-D-galactopyranosyl-D-glucose], the “level of sweetness as percent of sucrose” value is listed as “about 15%”.
As for `OC[C@@H](O)[C@@H](O)[C@H](O)[C@H](O)CO` [Mannitol], the “level of sweetness as percent of sucrose” value is “about 50%”.
On to `COC(=O)[C@H](Cc1ccccc1)NC(=O)[C@H](CC(=O)O)NCCCc1ccc(OC)c(O)c1` [advantame], for which the “sweetness, times as sweet as sucrose” value was “about 20 thousand”.
On to `O=C1NS(=O)(=O)c2ccccc21` [saccharin], for which the “sweetness, times as sweet as sucrose” value is 300 to 500 times.
